Test results: the supplement of paper PMC9233669
This sample is rich in variants without activity.

Key:
biotinyl-Leu-oxazolone = test: self-aminoacylation, catalytic enhancement (BLO) (fold over background); higher = more active; k-Seq, kA / k0A0; sequences stand for … in GGGAAUGGAUCCACAUCUACGAAUUC…UUCACUGCAGACUUGACGAAGCUG
Method in brief: (§1)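 The uncatalyzed rate is the low-activity peak of a bimodal Gaussian fit, and catalytic enhancement is median kA divided by it. The kA values came from pseudo-first-order fits, with 1000 bootstraps, of per-sequence fraction reacted measured by streptavidin capture, triplicate qPCR and Illumina sequencing. Mutagenized RNA pools with a 21-nt variable region (0.43 μM) were reacted with each biotinyl-aminoacyl-oxazolone at 2–1250 μM in 50 μL HEPES/NaCl/KCl/MgCl2/CaCl2 buffer with 5% acetonitrile, pH 6.9–7.0, for 90 minutes at room temperature.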

biotinyl-Val-oxazolone = test: self-aminoacylation, catalytic enhancement (BVO) (fold over background); higher = more active; k-Seq, kA / k0A0; sequences stand for … in GGGAAUGGAUCCACAUCUACGAAUUC…UUCACUGCAGACUUGACGAAGCUG
Method in brief: as §1

biotinyl-Ile-oxazolone = test: self-aminoacylation, catalytic enhancement (BIO) (fold over background); higher = more active; k-Seq, kA / k0A0; sequences stand for … in GGGAAUGGAUCCACAUCUACGAAUUC…UUCACUGCAGACUUGACGAAGCUG
Method in brief: as §1

biotinyl-Trp-oxazolone = test: self-aminoacylation, catalytic enhancement (BWO) (fold over background); higher = more active; k-Seq, kA / k0A0; sequences stand for … in GGGAAUGGAUCCACAUCUACGAAUUC…UUCACUGCAGACUUGACGAAGCUG
Method in brief: as §1

biotinyl-Met-oxazolone = test: self-aminoacylation, catalytic enhancement (BMO) (fold over background); higher = more active; k-Seq, kA / k0A0; sequences stand for … in GGGAAUGGAUCCACAUCUACGAAUUC…UUCACUGCAGACUUGACGAAGCUG
Method in brief: as §1

Sequence: AUUCACCUAGGUCAUUGGUUG [Fam2.2 aminoacylation ribozyme variant]
- self-aminoacylation (biotinyl-Leu-oxazolone): 1.09
- self-aminoacylation (biotinyl-Val-oxazolone): 1.06
- self-aminoacylation (biotinyl-Ile-oxazolone): 0.962
- self-aminoacylation (biotinyl-Trp-oxazolone): 0.579
- self-aminoacylation (biotinyl-Met-oxazolone): 0.783

Sequence: AUUCACCUAGGUCGUCGGGUC [Fam2.2 aminoacylation ribozyme variant]
- self-aminoacylation (biotinyl-Leu-oxazolone): 1.55
- self-aminoacylation (biotinyl-Val-oxazolone): 1.43
- self-aminoacylation (biotinyl-Ile-oxazolone): 1.17
- self-aminoacylation (biotinyl-Trp-oxazolone): 1.01
- self-aminoacylation (biotinyl-Met-oxazolone): 1.4

Sequence: AUUCACCUAGUUCAUCGGGAG [Fam2.2 aminoacylation ribozyme variant]
- self-aminoacylation (biotinyl-Leu-oxazolone): 1.19
- self-aminoacylation (biotinyl-Val-oxazolone): 0.943
- self-aminoacylation (biotinyl-Ile-oxazolone): 1.16
- self-aminoacylation (biotinyl-Trp-oxazolone): 1.04
- self-aminoacylation (biotinyl-Met-oxazolone): 1.07

Sequence: AUUCACGUAGGUCUUCGGGUG [Fam2.2 aminoacylation ribozyme variant]
- self-aminoacylation (biotinyl-Leu-oxazolone): 4.82
- self-aminoacylation (biotinyl-Val-oxazolone): 5.24
- self-aminoacylation (biotinyl-Ile-oxazolone): 3.86
- self-aminoacylation (biotinyl-Trp-oxazolone): 4.88
- self-aminoacylation (biotinyl-Met-oxazolone): 4.21

Sequence: AUUCGUCUAGGUCAUCGGGUG [Fam2.2 aminoacylation ribozyme variant]
- self-aminoacylation (biotinyl-Leu-oxazolone): 5.27
- self-aminoacylation (biotinyl-Val-oxazolone): 4.85
- self-aminoacylation (biotinyl-Ile-oxazolone): 4.9
- self-aminoacylation (biotinyl-Trp-oxazolone): 6.11
- self-aminoacylation (biotinyl-Met-oxazolone): 4.96

Sequence: AUUCUCCUAGGUCAUCGGGUC [Fam2.2 aminoacylation ribozyme variant]
- self-aminoacylation (biotinyl-Leu-oxazolone): 1.73
- self-aminoacylation (biotinyl-Val-oxazolone): 1.72
- self-aminoacylation (biotinyl-Ile-oxazolone): 1.65
- self-aminoacylation (biotinyl-Trp-oxazolone): 1.52
- self-aminoacylation (biotinyl-Met-oxazolone): 1.64

Sequence: AUUCUCCUAGGUCAUCGGUUG [Fam2.2 aminoacylation ribozyme variant]
- self-aminoacylation (biotinyl-Leu-oxazolone): 1.5
- self-aminoacylation (biotinyl-Val-oxazolone): 1.26
- self-aminoacylation (biotinyl-Ile-oxazolone): 1.22
- self-aminoacylation (biotinyl-Trp-oxazolone): 0.865
- self-aminoacylation (biotinyl-Met-oxazolone): 1.39

Sequence: AUUUACCUAGGCCAUCGGGUG [Fam2.2 aminoacylation ribozyme variant]
- self-aminoacylation (biotinyl-Leu-oxazolone): 3.95
- self-aminoacylation (biotinyl-Val-oxazolone): 3.2
- self-aminoacylation (biotinyl-Ile-oxazolone): 2.47
- self-aminoacylation (biotinyl-Trp-oxazolone): 3.98
- self-aminoacylation (biotinyl-Met-oxazolone): 3.07

Sequence: AUUUACCUAGGUCAUCGGAUG [Fam2.2 aminoacylation ribozyme variant]
- self-aminoacylation (biotinyl-Leu-oxazolone): 0.846
- self-aminoacylation (biotinyl-Val-oxazolone): 0.974
- self-aminoacylation (biotinyl-Ile-oxazolone): 0.906
- self-aminoacylation (biotinyl-Trp-oxazolone): 0.671
- self-aminoacylation (biotinyl-Met-oxazolone): 0.954

Sequence: AUUUCCCUGGUCUUCGAGUGA [Fam2.1 aminoacylation ribozyme variant]
- self-aminoacylation (biotinyl-Leu-oxazolone): 7.28
- self-aminoacylation (biotinyl-Val-oxazolone): 4.6
- self-aminoacylation (biotinyl-Ile-oxazolone): 4.33
- self-aminoacylation (biotinyl-Trp-oxazolone): 9.21
- self-aminoacylation (biotinyl-Met-oxazolone): 6.94

Sequence: AUUUUCCUAGGUCAUCGGGUG [Fam2.2 aminoacylation ribozyme variant]
- self-aminoacylation (biotinyl-Leu-oxazolone): 9.58
- self-aminoacylation (biotinyl-Val-oxazolone): 4.16
- self-aminoacylation (biotinyl-Ile-oxazolone): 4.64
- self-aminoacylation (biotinyl-Trp-oxazolone): 6.89
- self-aminoacylation (biotinyl-Met-oxazolone): 6.79

Sequence: CAGCACUUCAAGCAAUCGGUC [Fam1B.1 aminoacylation ribozyme variant]
- self-aminoacylation (biotinyl-Leu-oxazolone): 2.33
- self-aminoacylation (biotinyl-Val-oxazolone): 1.55
- self-aminoacylation (biotinyl-Ile-oxazolone): 1.67
- self-aminoacylation (biotinyl-Trp-oxazolone): 22.1
- self-aminoacylation (biotinyl-Met-oxazolone): 1.79

Sequence: CAGUUUGCUAAUAGUCCCAAG [Fam3.1 aminoacylation ribozyme variant]
- self-aminoacylation (biotinyl-Leu-oxazolone): 1.04
- self-aminoacylation (biotinyl-Val-oxazolone): 0.892
- self-aminoacylation (biotinyl-Ile-oxazolone): 1.21
- self-aminoacylation (biotinyl-Trp-oxazolone): 0.755
- self-aminoacylation (biotinyl-Met-oxazolone): 1.22

Sequence: CAGUUUGCUCAUAGUCGCAAG [Fam3.1 aminoacylation ribozyme variant]
- self-aminoacylation (biotinyl-Leu-oxazolone): 1.27
- self-aminoacylation (biotinyl-Val-oxazolone): 1.22
- self-aminoacylation (biotinyl-Ile-oxazolone): 1.26
- self-aminoacylation (biotinyl-Trp-oxazolone): 1.39
- self-aminoacylation (biotinyl-Met-oxazolone): 1.13

Sequence: CCACACUGCAGGCAAUCGGUC [Fam1B.1 aminoacylation ribozyme variant]
- self-aminoacylation (biotinyl-Leu-oxazolone): 1.57
- self-aminoacylation (biotinyl-Val-oxazolone): 2.17
- self-aminoacylation (biotinyl-Ile-oxazolone): 1.44
- self-aminoacylation (biotinyl-Trp-oxazolone): 1.38
- self-aminoacylation (biotinyl-Met-oxazolone): 1.76

Sequence: CCACACUUCAAACAACCGGUC [Fam1B.1 aminoacylation ribozyme variant]
- self-aminoacylation (biotinyl-Leu-oxazolone): 0.847
- self-aminoacylation (biotinyl-Val-oxazolone): 0.807
- self-aminoacylation (biotinyl-Ile-oxazolone): 1.21
- self-aminoacylation (biotinyl-Trp-oxazolone): 1.6
- self-aminoacylation (biotinyl-Met-oxazolone): 0.819

Sequence: CCACACUUCAAGCAAUCGCCC [Fam1B.1 aminoacylation ribozyme variant]
- self-aminoacylation (biotinyl-Leu-oxazolone): 2
- self-aminoacylation (biotinyl-Val-oxazolone): 2.32
- self-aminoacylation (biotinyl-Ile-oxazolone): 0.996
- self-aminoacylation (biotinyl-Trp-oxazolone): 1.58
- self-aminoacylation (biotinyl-Met-oxazolone): 1.33

Sequence: CCACACUUCAAGCGAUGGGUC [Fam1B.1 aminoacylation ribozyme variant]
- self-aminoacylation (biotinyl-Leu-oxazolone): 1.41
- self-aminoacylation (biotinyl-Val-oxazolone): 1.34
- self-aminoacylation (biotinyl-Ile-oxazolone): 1.28
- self-aminoacylation (biotinyl-Trp-oxazolone): 1.65
- self-aminoacylation (biotinyl-Met-oxazolone): 0.968

Sequence: CCACACUUCAAUUAAUCGGUC [Fam1B.1 aminoacylation ribozyme variant]
- self-aminoacylation (biotinyl-Leu-oxazolone): 1.09
- self-aminoacylation (biotinyl-Val-oxazolone): 1.06
- self-aminoacylation (biotinyl-Ile-oxazolone): 1.01
- self-aminoacylation (biotinyl-Trp-oxazolone): 15.6
- self-aminoacylation (biotinyl-Met-oxazolone): 0.937

Sequence: CCACGCUUCAAACAAUCGGUC [Fam1B.1 aminoacylation ribozyme variant]
- self-aminoacylation (biotinyl-Leu-oxazolone): 2.17
- self-aminoacylation (biotinyl-Val-oxazolone): 1.42
- self-aminoacylation (biotinyl-Ile-oxazolone): 1.22
- self-aminoacylation (biotinyl-Trp-oxazolone): 45.3
- self-aminoacylation (biotinyl-Met-oxazolone): 1.41

Sequence: CCACUCUUCAAUCAAUCGGUC [Fam1B.1 aminoacylation ribozyme variant]
- self-aminoacylation (biotinyl-Leu-oxazolone): 1.47
- self-aminoacylation (biotinyl-Val-oxazolone): 1.05
- self-aminoacylation (biotinyl-Ile-oxazolone): 1.01
- self-aminoacylation (biotinyl-Trp-oxazolone): 20.3
- self-aminoacylation (biotinyl-Met-oxazolone): 0.97

Sequence: CCCCACUACAAGCAAUCGGUC [Fam1B.1 aminoacylation ribozyme variant]
- self-aminoacylation (biotinyl-Leu-oxazolone): 1.19
- self-aminoacylation (biotinyl-Val-oxazolone): 1.58
- self-aminoacylation (biotinyl-Ile-oxazolone): 1.4
- self-aminoacylation (biotinyl-Trp-oxazolone): 1.85
- self-aminoacylation (biotinyl-Met-oxazolone): 0.908

Sequence: CGACUUCAAUCAAUCGGUCUG [Fam1A.1 aminoacylation ribozyme variant]
- self-aminoacylation (biotinyl-Leu-oxazolone): 2.21
- self-aminoacylation (biotinyl-Val-oxazolone): 1.7
- self-aminoacylation (biotinyl-Ile-oxazolone): 1.46
- self-aminoacylation (biotinyl-Trp-oxazolone): 24.3
- self-aminoacylation (biotinyl-Met-oxazolone): 1.62

Sequence: CUAAUUCAAACAAACGGUCUG [Fam1A.1 aminoacylation ribozyme variant]
- self-aminoacylation (biotinyl-Leu-oxazolone): 0.561
- self-aminoacylation (biotinyl-Val-oxazolone): 0.917
- self-aminoacylation (biotinyl-Ile-oxazolone): 0.823
- self-aminoacylation (biotinyl-Trp-oxazolone): 0.543
- self-aminoacylation (biotinyl-Met-oxazolone): 0.616

Sequence: CUACACUUUAAGCAAUCGGUC [Fam1B.1 aminoacylation ribozyme variant]
- self-aminoacylation (biotinyl-Leu-oxazolone): 0.585
- self-aminoacylation (biotinyl-Val-oxazolone): 0.74
- self-aminoacylation (biotinyl-Ile-oxazolone): 0.768
- self-aminoacylation (biotinyl-Trp-oxazolone): 0.565
- self-aminoacylation (biotinyl-Met-oxazolone): 0.63

Sequence: CUACCCUUCAAGCAAUCGGUC [Fam1B.1 aminoacylation ribozyme variant]
- self-aminoacylation (biotinyl-Leu-oxazolone): 1.02
- self-aminoacylation (biotinyl-Val-oxazolone): 1.03
- self-aminoacylation (biotinyl-Ile-oxazolone): 1.04
- self-aminoacylation (biotinyl-Trp-oxazolone): 5.52
- self-aminoacylation (biotinyl-Met-oxazolone): 0.817

Sequence: CUACUACAAACAAUCGGUCUG [Fam1A.1 aminoacylation ribozyme variant]
- self-aminoacylation (biotinyl-Leu-oxazolone): 0.608
- self-aminoacylation (biotinyl-Val-oxazolone): 0.743
- self-aminoacylation (biotinyl-Ile-oxazolone): 0.694
- self-aminoacylation (biotinyl-Trp-oxazolone): 0.73
- self-aminoacylation (biotinyl-Met-oxazolone): 0.634

Sequence: CUACUCCAAUCAAUCGGUCUG [Fam1A.1 aminoacylation ribozyme variant]
- self-aminoacylation (biotinyl-Leu-oxazolone): 0.799
- self-aminoacylation (biotinyl-Val-oxazolone): 0.929
- self-aminoacylation (biotinyl-Ile-oxazolone): 0.771
- self-aminoacylation (biotinyl-Trp-oxazolone): 1.52
- self-aminoacylation (biotinyl-Met-oxazolone): 0.81
